Data: doi:10.1101/431791
No constants are given. Whether binding was seen depends on the method and setting. A result given as binding can be weak or reduced; the word gives no strength. Where a sequence is shown, tags or fusion partners need not be part of it.

B1: AUR1, yeast two-hybrid fusion (enzyme, UniProt Q9M077 1-294)
chain: MAIPTETQHQEKEASDASAAAAQKRWTLSDFDIGKPLGRGKFGHVYLAREKRSNHVVALKVLFKSQLQQSQVEHQLRREVEIQSHLRHPNILRLYGYFYDQKRVYLILEYAARGELYKDLQKCKYFSERRAATYVASLARALIYCHGKHVIHRDIKPENLLIGAQGELKIADFGWSVHTFNRRRTMCGTLDYLPPEMVESVEHDASVDIWSLGILCYEFLYGVPPFEAMEHSDTYRRIVQVDLKFPPKPIISASAKDLISQMLVKESSQRLPLHKLLEHPWIVQNADPSGIYRV

Experiments:
[1] = biological target: T1, AUR1, yeast two-hybrid fusion (A. thaliana) (UniProt Q9M077); experiment: two-hybrid
T1 sequence: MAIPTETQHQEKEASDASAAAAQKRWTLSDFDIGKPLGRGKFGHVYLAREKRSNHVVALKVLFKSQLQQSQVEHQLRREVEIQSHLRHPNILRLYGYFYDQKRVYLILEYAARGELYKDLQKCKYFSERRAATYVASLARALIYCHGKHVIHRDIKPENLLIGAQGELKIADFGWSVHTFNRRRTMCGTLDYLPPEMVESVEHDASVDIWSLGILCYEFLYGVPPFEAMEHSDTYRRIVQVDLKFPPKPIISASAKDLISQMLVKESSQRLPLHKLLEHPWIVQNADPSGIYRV

[2] = biological target: TPXL2, yeast two-hybrid fusion (A. thaliana); experiment: two-hybrid

| Molecule | binding [1] | binding [2] |
| --- | --- | --- |
| TPXL3, yeast two-hybrid fusion (A. thaliana) | no binding |  |
| TPXL2, yeast two-hybrid fusion (A. thaliana) | binds |  |
| B1 |  | binds |
